This note sets out measurements from US20250084063A1 (Incyte Corporation, priority 2023, published 2025).

Sequences of proteins named here, by UniProt entry; tags and fusion partners are left off.
UniProt Q96LB1, whole entry: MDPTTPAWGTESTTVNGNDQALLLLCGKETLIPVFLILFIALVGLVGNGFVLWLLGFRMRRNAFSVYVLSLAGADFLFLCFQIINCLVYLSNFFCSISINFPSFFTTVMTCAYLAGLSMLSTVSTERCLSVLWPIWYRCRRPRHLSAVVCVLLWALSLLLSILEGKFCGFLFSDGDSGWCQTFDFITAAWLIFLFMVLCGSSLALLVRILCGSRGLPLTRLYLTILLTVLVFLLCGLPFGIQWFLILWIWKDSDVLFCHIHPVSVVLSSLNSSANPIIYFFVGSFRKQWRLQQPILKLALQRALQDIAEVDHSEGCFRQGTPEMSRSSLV

The structures given here were assigned with low confidence; some may be wrong.

The target in the test is MRGPRX2 (Homo sapiens, UniProt Q96LB1). The test is described as follows: MRGPRX2 β-Arrestin assay. Particulars: read-out: MRGPRX2 β-Arrestin; PathHunter CHO-K1 MRGPRX2 β-Arrestin cell line; agonist Cortistatin 14 0.25 μM. The text has this: Example C: MRGPRX2 β-Arrestin Assay
This assay measures compound inhibition of β-Arrestin recruitment, which is part of the G protein-independent pathway that results from the ligand-activated GPCR phosphorylation by specific GPCR kinases. The PathHunter CHO-K1 MRPGRX2 B-Arrestin Cell line stably expressing ProLink tagged MRGPRX2 and Enzyme Acceptor Tagged B-Arrestin was purchased from Eurofins DiscoverX, (Fremont, CA).
The cells were maintained in culture medium from the Europhins DiscoverX Cell Culture Kit-107 which includes FBS, hygromycin B and G418. For the assay, the cells were harvested and were resuspended with Cell Plating Reagent 2 (Eurofins DiscoverX). Cells were added 10000 cells in 25 µL/well to a 384-well black cell culture plate (Greiner VWR, Radnor, PA) which contained 125 nL/well of compound at a selected serially diluted concentration range or DMSO. The plate was incubated at 37° C. with 5% CO2 for 1 h. 2 μL/well of agonist Cortistatin 14 was diluted in Protein Dilution Buffer, (Eurofins DiscoverX) for a final concentration of 0.25 μM, was added and the plate was incubated at 37° C. with 5% CO2 for 90 min. […] Plates were read on the PHERAstar microplate reader (BMG Labtech Cary, NC) measuring luminescence 0.1 to 1 second per well. […]

Turning to `[2H]C([2H])([2H])NC(=O)N1CC(CNc2cc(C(F)(F)F)nc3ccc(Cl)cc23)(n2cc(C(F)F)cn2)C1`, the IC50 lay within 0.1 to 100 nM.
